The values that follow are results of earlier work, collected in paper PMC11387443, “Determination of bisphosphonate properties in terms of bioavailability, bone affinity, and cytotoxicity” (Pharmacological Reports, 2024).

Each structure is given as a SMILES string.

Details of this series: method as in PMID 18056045. The following applies: cited from earlier work.

Regarding `NCCCC(O)(P(=O)(O)O)P(=O)(O)O` [alendronate], the “urinary excretion 24 h after the first dose” value was 44%.
